Measured values: paper PMC8345098
Results are given in words; binding and its absence hold for the method and conditions named. Binding seen in cells or lysates may run through a third protein. Some entries that bind do so weakly or less than the wild type.

The chains behind the UniProt entries cited, without tags or fusion partners.
UniProt Q9H0K1: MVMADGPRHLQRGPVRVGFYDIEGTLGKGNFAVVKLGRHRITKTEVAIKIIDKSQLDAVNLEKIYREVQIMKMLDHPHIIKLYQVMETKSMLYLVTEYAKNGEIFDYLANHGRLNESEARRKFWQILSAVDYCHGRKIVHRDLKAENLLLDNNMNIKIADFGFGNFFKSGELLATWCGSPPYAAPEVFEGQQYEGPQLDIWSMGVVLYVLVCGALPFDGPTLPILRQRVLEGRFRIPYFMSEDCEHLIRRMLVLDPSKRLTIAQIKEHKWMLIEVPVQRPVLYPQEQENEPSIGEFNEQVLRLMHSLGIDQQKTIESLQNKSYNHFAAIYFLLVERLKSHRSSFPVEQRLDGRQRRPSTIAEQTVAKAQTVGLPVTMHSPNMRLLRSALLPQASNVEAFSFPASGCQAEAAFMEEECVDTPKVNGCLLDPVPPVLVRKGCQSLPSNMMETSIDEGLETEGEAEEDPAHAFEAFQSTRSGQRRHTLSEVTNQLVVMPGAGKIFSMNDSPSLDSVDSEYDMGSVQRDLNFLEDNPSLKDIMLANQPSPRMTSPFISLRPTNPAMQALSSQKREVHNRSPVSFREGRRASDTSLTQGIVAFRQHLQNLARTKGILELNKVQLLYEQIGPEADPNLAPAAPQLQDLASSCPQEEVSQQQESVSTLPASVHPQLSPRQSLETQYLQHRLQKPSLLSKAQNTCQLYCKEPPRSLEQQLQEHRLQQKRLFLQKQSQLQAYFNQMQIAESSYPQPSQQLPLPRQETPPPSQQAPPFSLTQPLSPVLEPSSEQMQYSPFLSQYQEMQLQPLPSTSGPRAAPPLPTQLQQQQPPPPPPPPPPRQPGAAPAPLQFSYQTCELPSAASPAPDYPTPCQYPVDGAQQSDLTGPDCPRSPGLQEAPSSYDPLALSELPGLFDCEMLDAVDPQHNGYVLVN
UniProt Q15691: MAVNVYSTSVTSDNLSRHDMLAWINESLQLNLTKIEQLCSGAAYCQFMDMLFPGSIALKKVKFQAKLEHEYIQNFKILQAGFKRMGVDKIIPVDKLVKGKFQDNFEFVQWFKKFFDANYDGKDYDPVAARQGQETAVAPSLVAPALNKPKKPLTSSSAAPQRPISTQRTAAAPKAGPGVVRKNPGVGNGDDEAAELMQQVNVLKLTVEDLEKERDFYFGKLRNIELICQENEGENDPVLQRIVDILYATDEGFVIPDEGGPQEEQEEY

Biological target: Salt inducible kinase 2 (SIK2) (human (endogenous in SKOV-3)) (UniProt Q9H0K1)
Test: co-IP; immunoprecipitation with SIK2 specific antibodies from SKOV-3 cells (G2-synchronized; also unsynchronized or G2 cells treated with MRIA9); precipitates and 5% of the input immunoblotted

binding | Molecule
binds | End binding protein 1 (EB1) (from UniProt Q15691 1-268)
binds | KIF18B (protein, UniProt Q86Y91 1-852) MAVEDSTLQVVVRVRPPTPRELDSQRRPVVQVVDERVLVFNPEEPDGGFPGLKWGGTHDGPKKKGKDLTFVFDRVFGEAATQQDVFQHTTHSVLDSFLQGYNCSVFAYGATGAGKTHTMLGREGDPGIMYLTTVELYRRLEARQQEKHFEVLISYQEVYNEQIHDLLEPKGPLAIREDPDKGVVVQGLSFHQPASAEQLLEILTRGNRNRTQHPTDANATSSRSHAIFQIFVKQQDRVPGLTQAVQVAKMSLIDLAGSERASSTHAKGERLREGANINRSLLALINVLNALADAKGRKTHVPYRDSKLTRLLKDSLGGNCRTVMIAAISPSSLTYEDTYNTLKYADRAKEIRLSLKSNVTSLDCHISQYATICQQLQAEVAALRKKLQVYEGGGQPPPQDLPGSPKSGPPPEHQPCTPELPAGPRALQEESLGMEAQVERAMEGNSSDQEQSPEDEDEGPAEEVPTQMPEQNPTHALPESPRLTLQPKPVVGHFSARELDGDRSKQLALKVLCVAQRQYSLLQAANLLTPDMITEFETLQQLVQEEKIEPGAEALRTSGLARGAPLAQELCSESIPVPSPLCPEPPGYTGPVTRTMARRLSGPLHTLGIPPGPNCTPAQGSRWPMEKKRRRPSALEADSPMAPKRGTKRQRQSFLPCLRRGSLPDTQPSQGPSTPKGERASSPCHSPRVCPATVIKSRVPLGPSAMQNCSTPLALPTRDLNATFDLSEEPPSKPSFHECIGWDKIPQELSRLDQPFIPRAPVPLFTMKGPKPTSSLPGTSACKKKRVASSSVSHGRSRIARLPSSTLKRPAGPLVLPELPLSPLCPSNRRNGKDLIRVGRALSAGNGVTKVS
